Patent US8829049B2, “Medicinal composition intended for the treatment of erectile dysfunction in mammals and use of the composition” (ACEF S.A., priority 2009, dated 2014)
Where a name gives a salt, the structure may show the parent alone. For at least one compound, name, drawing or mass did not settle the structure.

Key:
other PDEs = settings: cited from earlier work
patients = settings: cited from earlier work
Swiss mice = experiment: vasodilating effect / penile erection test in Swiss mice, intraperitoneal administration, with penile histology; assay type: in vivo; settings: mouse penile tissue, H. E., 400×
Experimental: 42 Swiss mice have been used, adults, between 18 and 24 weeks old, weighing between 25 and 35 grams, from the Biotherium of the University of Franca (UNIFRAN), which were confined in plastic cages with metal fences and fed with standard feed (Labina-Purina) and water ad libitum, at room temperature of 22° C.
After a period of adaptation, the animals have been divided into seven groups, as per Table 1 below:
Animals from all groups have been kept under the same conditions for four hours for later evaluation of the studied pharmacological effect. They were subsequently anesthetized with a solution of 1.5 mg of ketamine plus 0.1 mg of xylazine and then euthanized to take off the penile tissue. Each sample was immediately stocked in 10% formaldehyde to make histological slides.

CN1CC(=O)N2[C@H](c3ccc4c(c3)OCO4)c3[nH]c4ccccc4c3C[C@@H]2C1=O [Tadalafil]
activity against other PDEs (other PDEs): low activity against other PDEs
patients still having effects (patients; 36 hours after the ingestion of a single oral 20 mg dose): 60%
time to erection (patients; after one single oral 20 mg dose): twenty

CCCc1nc(C)c2c(=O)[nH]c(-c3cc(S(=O)(=O)N4CCN(CC)CC4)ccc3OCC)nn12 [Vardenafil]
patients having an erection (patients; thirty minutes after the ingestion): 50%

CCCc1nn(C)c2c(=O)[nH]c(-c3cc(S(=O)(=O)N4CCN(C)CC4)ccc3OCC)nc12 [sildenafil citrate]
histology of corpus cavernosum (Swiss mice): vascular space very dilated and full of erythrocytes
